PubChem BioAssay AID1508597 – Cure First, 2020
Shown is a random part of the about 2,100 reagents, under one of the conditions tested. 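Calls flag viability under 80% in either arm, not effects specific to rucaparib; the reference for percent is not stated.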 Some reagents were tested in more than one well and are listed for each. The record does not give: the 100% reference.

Test: 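Survival screen with siRNA in ovarian cancer cells derived from patients, with or without rucaparib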 (primary screen)
System: human ovarian carcinoma lines grown from tumours: OCI-P5x (papillary serous) and OCI-C5x (clear cell)
Reagent: siRNA pool against human genes, 1.25 pmol siRNA per well
Time to read-out: 72 h or 96 h, depending on the cell culture
Treatment: rucaparib 20 µM (about IC30) or vehicle, present until read-out
Rucaparib or vehicle: Vehicle
Cell line: OCI-P5x (serous)
Measured: 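Luminescent ATP-based viability assay read 72 or 96 h after transfection, depending on culture, given as normalised percent viability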
Direction: viability, normalised: higher = more viable cells remaining
Active means: 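a well counts as a hit if its normalised viability is under 80 percent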
Meaning of the calls: active = viability under 80%; inactive = viability 80% or more

gene knocked down | technical replicate | viability, normalised (%) | activity call
GLYR1 (glyoxylate reductase 1 homolog) | 1 | 72.4 | active
GLYR1 (glyoxylate reductase 1 homolog) | 2 | 86.9 | inactive
GLYR1 (glyoxylate reductase 1 homolog) | 3 | 83.4 | inactive
YES1 (YES proto-oncogene 1, Src family tyrosine kinase) | 1 | 69.2 | active
YES1 (YES proto-oncogene 1, Src family tyrosine kinase) | 1 | 96.2 | inactive
YES1 (YES proto-oncogene 1, Src family tyrosine kinase) | 2 | 72.7 | active
YES1 (YES proto-oncogene 1, Src family tyrosine kinase) | 2 | 77.9 | active
YES1 (YES proto-oncogene 1, Src family tyrosine kinase) | 3 | 66.6 | active
YES1 (YES proto-oncogene 1, Src family tyrosine kinase) | 3 | 82.2 | inactive
STK32C (serine/threonine kinase 32C) | 1 | 72.9 | active
STK32C (serine/threonine kinase 32C) | 2 | 52.8 | active
STK32C (serine/threonine kinase 32C) | 3 | 51.7 | active
POU5F1 (POU class 5 homeobox 1) | 1 | 62.4 | active
POU5F1 (POU class 5 homeobox 1) | 2 | 80.6 | inactive
POU5F1 (POU class 5 homeobox 1) | 3 | 67.5 | active
SSRP1 (structure specific recognition protein 1) | 1 | 55.7 | active
SSRP1 (structure specific recognition protein 1) | 1 | 82.7 | inactive
SSRP1 (structure specific recognition protein 1) | 2 | 79.7 | active
SSRP1 (structure specific recognition protein 1) | 2 | 64.6 | active
SSRP1 (structure specific recognition protein 1) | 3 | 82.9 | inactive
SSRP1 (structure specific recognition protein 1) | 3 | 73.9 | active
ROR2 (ROR family WNT receptor 2) | 1 | 77.6 | active
ROR2 (ROR family WNT receptor 2) | 2 | 66.1 | active
ROR2 (ROR family WNT receptor 2) | 3 | 88.9 | inactive
ESRRB (estrogen related receptor beta) | 1 | 71.4 | active
ESRRB (estrogen related receptor beta) | 2 | 75.5 | active
ESRRB (estrogen related receptor beta) | 3 | 85.8 | inactive
MAP3K4 (mitogen-activated protein kinase kinase kinase 4) | 1 | 87.5 | inactive
MAP3K4 (mitogen-activated protein kinase kinase kinase 4) | 2 | 76.1 | active
MAP3K4 (mitogen-activated protein kinase kinase kinase 4) | 3 | 67.2 | active
SUV39H1 (SUV39H1 histone lysine methyltransferase) | 1 | 83.2 | inactive
SUV39H1 (SUV39H1 histone lysine methyltransferase) | 1 | 78.8 | active
SUV39H1 (SUV39H1 histone lysine methyltransferase) | 2 | 82.7 | inactive
SUV39H1 (SUV39H1 histone lysine methyltransferase) | 2 | 91.8 | inactive
SUV39H1 (SUV39H1 histone lysine methyltransferase) | 3 | 81.7 | inactive
SUV39H1 (SUV39H1 histone lysine methyltransferase) | 3 | 85.1 | inactive
MAP4K3 (mitogen-activated protein kinase kinase kinase kinase 3) | 1 | 93.4 | inactive
MAP4K3 (mitogen-activated protein kinase kinase kinase kinase 3) | 2 | 100 | inactive
MAP4K3 (mitogen-activated protein kinase kinase kinase kinase 3) | 3 | 98.8 | inactive
ELP4 (elongator acetyltransferase complex subunit 4) | 1 | 55.5 | active
ELP4 (elongator acetyltransferase complex subunit 4) | 2 | 61.1 | active
ELP4 (elongator acetyltransferase complex subunit 4) | 3 | 74.9 | active
RPS6KA5 (ribosomal protein S6 kinase A5) | 1 | 70.3 | active
RPS6KA5 (ribosomal protein S6 kinase A5) | 2 | 63.2 | active
RPS6KA5 (ribosomal protein S6 kinase A5) | 3 | 65 | active
AGO2 (argonaute RISC catalytic component 2) | 1 | 64.6 | active
AGO2 (argonaute RISC catalytic component 2) | 2 | 68.2 | active
AGO2 (argonaute RISC catalytic component 2) | 3 | 85.9 | inactive
DPH2 (diphthamide biosynthesis 2) | 1 | 65.8 | active
DPH2 (diphthamide biosynthesis 2) | 2 | 66 | active
DPH2 (diphthamide biosynthesis 2) | 3 | 67.6 | active
DUSP1 (dual specificity phosphatase 1) | 1 | 58.8 | active
DUSP1 (dual specificity phosphatase 1) | 2 | 66.9 | active
DUSP1 (dual specificity phosphatase 1) | 3 | 53.5 | active
MRPL58 (mitochondrial ribosomal protein L58) | 1 | 74.5 | active
MRPL58 (mitochondrial ribosomal protein L58) | 1 | 71.2 | active
MRPL58 (mitochondrial ribosomal protein L58) | 2 | 78.4 | active
MRPL58 (mitochondrial ribosomal protein L58) | 2 | 73.3 | active
MRPL58 (mitochondrial ribosomal protein L58) | 3 | 77.5 | active
MRPL58 (mitochondrial ribosomal protein L58) | 3 | 68.1 | active

A few values from the entries so far.
Value of AGO2 (argonaute RISC catalytic component 2), technical replicate 2 under “viability, normalised (%)”: 68.2
Result for MAP4K3 (mitogen-activated protein kinase kinase kinase kinase 3), technical replicate 3 in “activity call”: inactive
GLYR1 (glyoxylate reductase 1 homolog), technical replicate 3, activity call = inactive
Entry of GLYR1 (glyoxylate reductase 1 homolog), technical replicate 1 under “viability, normalised (%)”: 72.4
Under “activity call”, POU5F1 (POU class 5 homeobox 1), technical replicate 3 shows active
DPH2 (diphthamide biosynthesis 2), technical replicate 1, activity call → active
